# Experimental data: PubChem BioAssay AID2685 (National Center for Advancing Translational Sciences (NCATS), 2010)
# The whole screen tested about 320,000 compounds, of which about 2,100 (0.66%) were called active. Inconclusive means that the source gave no clear call. Such entries were picked first, then a sample of the others. Calls follow the shape of the dose curve; as a rule, active = well fitted inhibition curve with a large enough effect in the signal ratio, with a control signal flat (not every such curve was filed as active); inconclusive = small, poorly fitted or top-dose-only effect, or effect the other way, or a change in a side signal; inactive = flat fitted curve, though single readings scatter; the % refers to the signal ratio. Where the call is inconclusive, the potency comes from a doubtful curve fit.
# Assay: qHTS Assay for Lipid Storage Modulators in Drosophila S3 Cells
# Details: BODIPY lipid droplet fluorescence, 18-24 h, cells fed with added oleic acid; lipid storage change, negative = inhibition: at 46.1 µM (top of the series) unless noted
# Procedure, shortened: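 Drosophila S3 cells loaded with oleic acid (400 uM, as added) and compounds at several concentrations; lipid droplets imaged by 488-nm laser-scanning cytometry, 500–530 nm intensity and object ratio to cell channel. Percent activity normalized to 20 uM Triacsin C.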
# % is scaled to controls: 0 for no effect and ±100 for the full control effect; potency is read from the fitted curve at half-maximal effect.
Compound,"lipid storage change, negative = inhibition",Potency
CN(Cc1nc(-c2cnccn2)no1)Cc1n[nH]c2c1CCCCC2,inconclusive: 12.2%,–
CC1(c2ccccc2)NC(=O)N(CC(=O)Nc2cccc(C#N)c2)C1=O (stereo not given),inconclusive: 15.5%,–
O=C(NCCn1cc(SCc2ccc(F)cc2)c2ccccc21)c1c(F)cccc1F,inconclusive: 7.5%,–
CC(OC(=O)CCCSc1nc2ccccc2s1)C(=O)NC(N)=O (stereo not given),inconclusive: -3.43%,–
CC1CCN(S(=O)(=O)c2cccc(C(=O)NCc3cccs3)c2)CC1,–,"inconclusive: 29.1 µM [activator, single point]"
O=C(CNc1cccc(F)c1)Nc1cccc(S(=O)(=O)N2CCCCC2)c1,inconclusive: 0.202%,–
Cc1ccc(-c2nn(C)c(=O)c3ccccc23)cc1CNC(=O)Cn1nc(-c2ccccc2)c2ccccc2c1=O,inconclusive: 17.2%,–
Cc1ccc(Nc2nc(N)nc(CSc3ncccn3)n2)cc1,inconclusive: -196%,–
CCCC(=O)Nc1cc(C(=O)O)ccc1S(=O)(=O)c1ccc(C)cc1,inconclusive: -4.21%,–
O=C(Cn1c(-c2ccccc2)noc1=O)Nc1ccc(S(=O)(=O)N2CCOCC2)cc1,inconclusive: -46.7%,–
COc1ccc(C(C(N)=O)c2ncc(C(F)(F)F)cc2Cl)cc1OC (stereo not given),inconclusive: 6.21% [cytotoxic],–
Cc1ccnc(NC(=O)c2ccc(Cl)s2)c1,inactive,–
Cc1nc(CCNS(=O)(=O)c2cccnc2)cs1,–,"inconclusive: 14.6 µM [activator, single point]"
COC(=O)c1ccc(CSc2nc(C(F)(F)F)c3c(c2C#N)CCC3)o1,inconclusive: 44.7%,–
COc1ccc(NC(=S)N2CCN(c3ccccn3)CC2)cc1,inconclusive: 18.2%,–
CCN(CC)CCCNC(=O)C1CCCN(c2nnc(N3CCCC3=O)s2)C1 (stereo not given),–,active: 25.9 µM
CC(C)C(NC(=O)c1ccc(F)cc1)C(=O)NC1(C)CCS(=O)(=O)C1 (stereo not given),–,"inconclusive: 2.91 µM [activator, single point]"
CSc1ccc(/C=N/N2CCN(c3ccccc3)CC2)cc1,inconclusive: -18.7%,–
Cc1sc(-n2cccc2)c(C(=O)O)c1C,–,active: 1.84 µM
CCC(=O)Nc1ccc(NC(=S)NC(=O)Cc2ccccc2)cc1,–,"inconclusive: 0.517 µM [activator, single point]"
CC(C)C[C@@H](CSc1ccc(Br)cc1)N1CCN(CC(C)C)CCC1=O,inconclusive: 14.2%,–
O=C(O)CN1C(=O)/C(=C\C(Br)=C\c2ccccc2)SC1=S,inconclusive: -32.3%,–
CCS(=O)(=O)c1nc(S(=O)(=O)c2ccc(Cl)cc2)c(N2CCc3ccccc3C2)s1,–,"inconclusive: 0.164 µM [rising, full curve, poor fit]"
CN(CC(=O)NCc1cccnc1)S(=O)(=O)c1ccc2c(c1)c(=O)n(C)c(=O)n2C,inconclusive: 1.96%,–
COC(=O)C1=C(C)N(Cc2ccccc2)C(=NCC(C)C)N[C@H]1c1ccccc1,inconclusive: 6.1%,–

Compound,"lipid storage change, negative = inhibition",Potency
CCOC(=O)NC(=O)COC(=O)Cc1cc(OC)c(OC)c(OC)c1,inconclusive: 23%,–
COc1ccc(N2C(=O)CC(Sc3ccccc3C(=O)O)C2=O)c([N+](=O)[O-])c1 (stereo not given),inconclusive: 20%,–
CC(Sc1nnc(COc2ccc([N+](=O)[O-])cc2)n1-c1ccccc1)C(=O)O (stereo not given),inconclusive: -43.7%,–
Cn1c(N)c(C(=O)COc2ccc(C#N)cc2)c(=O)n(C)c1=O,inconclusive: 28%,–
COc1ccc([C@@H]2[C@@H]3C(=O)N(C(C)(C)C)C(=O)[C@@H]3[C@]3(CC(C)C)C(=O)N(c4ccccc4)C(=O)N23)cc1,inconclusive: 56%,–
CCc1ccc(-c2cc3c(=O)n(CC(=O)N4CCCCCC4)nc(C)n3n2)cc1,inconclusive: 85.6%,–
CCOc1cc(C(=S)N2CCOCC2)ccc1OS(=O)(=O)c1ccccc1,–,"inconclusive: 5.17 µM [activator, partial curve, poor fit]"
Cc1c(CC(=O)NCC(=O)N[C@H](Cc2ccccc2)C(=O)O)c(=O)oc2cc(O)ccc12,inconclusive: 16.4%,–
COc1ccc(C)cc1Nc1nc(-c2c(C)[nH]c3ccccc23)cs1,inconclusive: -4.89%,–
Cn1nccc1CNC(=O)c1c(Cl)cnn1C,inconclusive: -5.02%,–
CCOC(=O)C1(CC2CC2)CCN(C(=O)c2cc(C)nc3ccc(CC)cc23)CC1,inconclusive: -55.1%,–
CC(=O)c1ccc(NC(=O)C(C)OC(=O)CCCN=C2NS(=O)(=O)c3ccccc32)cc1 (stereo not given),inconclusive: -1.33%,–
COc1ccccc1NC(=O)N(c1c(N)n(Cc2ccccc2)c(=O)[nH]c1=O)C1CCCC1,inconclusive: -48.2%,–
Oc1ccc(-c2csc(Nc3ncccn3)n2)cc1O,inconclusive: 1.49%,–
COc1ccc(C2=NO[C@@H]3C(=O)N(c4ccc(C)cc4C)C(=O)[C@H]23)cc1OC,inconclusive: -0.459%,–
C=CCOc1ccccc1CN1CCCCCC1,inconclusive: 15.4%,–
CCN(C(=O)COC(=O)c1ccccc1NCCO)C1CCS(=O)(=O)C1 (stereo not given),inconclusive,–
CCOC(=O)c1c(C)nc2cc(C)cc(C)n12,inconclusive: 7.7%,–
Oc1ccc(-c2nc3ccccc3nc2-c2ccccc2)cc1,–,"inconclusive: 29.1 µM [falling, single point]"
O=C(c1ccc(S(=O)(=O)N2CCCCC2)cc1)N1CCN(CCN2C(=O)c3cccc4cccc(c34)C2=O)CC1,inconclusive: 60.7%,–
Cc1ccccc1NC(=O)Cc1nnc(SCc2ccc(Cl)c(Cl)c2)n1C,inconclusive: 24.3%,–
O=C(CCN1C(=O)/C(=C/c2ccccc2)SC1=S)N[C@@H](CO)Cc1ccccc1,inactive,–
O=C(N=c1ccn(-c2nc3ccccc3nc2NS(=O)(=O)c2ccccc2)cc1)c1ccccc1Cl,–,"inconclusive: 29.1 µM [activator, single point]"
Cc1ccc(F)cc1NC(=O)C1C2CCC(O2)C1C(=O)O (stereo not given),–,"inconclusive: 20.6 µM [activator, partial curve]"
CCOC(=O)C1CCN(C(=O)Cn2nc(C)n3nc(-c4ccc(OC)cc4)cc3c2=O)CC1,–,"inconclusive: 2.59 µM [activator, partial curve, poor fit]"

# As entered above:
# lipid storage change, negative = inhibition with CCOC(=O)NC(=O)COC(=O)Cc1cc(OC)c(OC)c(OC)c1 is entered as inconclusive: 23%
# lipid storage change, negative = inhibition with Cn1nccc1CNC(=O)c1c(Cl)cnn1C is entered as inconclusive: -5.02%
# lipid storage change, negative = inhibition with CC(=O)c1ccc(NC(=O)C(C)OC(=O)CCCN=C2NS(=O)(=O)c3ccccc32)cc1 (stereo not given) is entered as inconclusive: -1.33%
